# According to PubChem BioAssay (EPA / NIEHS):
# Protein sequences, listed by entry. Tags and fused reporters are not part of them. Lines headed by an entry give the natural chain unless they say otherwise; changes in a name come on top.
# UniProt P28190, whole entry, looked up: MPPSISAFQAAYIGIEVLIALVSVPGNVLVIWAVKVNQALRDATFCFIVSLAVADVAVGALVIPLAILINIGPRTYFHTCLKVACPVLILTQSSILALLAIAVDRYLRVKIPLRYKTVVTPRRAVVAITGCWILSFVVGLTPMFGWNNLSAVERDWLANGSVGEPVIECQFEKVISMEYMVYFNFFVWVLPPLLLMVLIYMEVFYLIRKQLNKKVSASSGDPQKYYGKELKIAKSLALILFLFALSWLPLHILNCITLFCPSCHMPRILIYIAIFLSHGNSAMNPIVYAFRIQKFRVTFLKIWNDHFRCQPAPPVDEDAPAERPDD
# UniProt Q2NNR5: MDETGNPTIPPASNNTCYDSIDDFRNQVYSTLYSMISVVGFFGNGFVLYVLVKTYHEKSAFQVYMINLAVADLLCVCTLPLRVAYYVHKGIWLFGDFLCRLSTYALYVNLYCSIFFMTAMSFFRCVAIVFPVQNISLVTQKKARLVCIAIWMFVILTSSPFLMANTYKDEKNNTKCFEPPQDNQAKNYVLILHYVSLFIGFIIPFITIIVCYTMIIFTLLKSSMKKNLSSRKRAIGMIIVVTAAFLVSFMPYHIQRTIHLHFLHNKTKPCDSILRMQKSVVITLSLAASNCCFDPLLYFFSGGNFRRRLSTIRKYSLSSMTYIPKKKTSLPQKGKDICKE
# UniProt P47898, whole entry, looked up: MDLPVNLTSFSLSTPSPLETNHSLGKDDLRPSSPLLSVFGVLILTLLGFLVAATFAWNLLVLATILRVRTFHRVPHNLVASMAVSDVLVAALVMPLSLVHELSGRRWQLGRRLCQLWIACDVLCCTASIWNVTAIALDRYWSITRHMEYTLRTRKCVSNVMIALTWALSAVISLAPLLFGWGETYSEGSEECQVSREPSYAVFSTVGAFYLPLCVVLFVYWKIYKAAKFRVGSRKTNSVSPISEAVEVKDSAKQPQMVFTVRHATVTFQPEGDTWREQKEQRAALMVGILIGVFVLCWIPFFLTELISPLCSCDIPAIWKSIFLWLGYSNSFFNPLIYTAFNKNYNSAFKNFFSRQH
# UniProt P28223, whole entry, looked up: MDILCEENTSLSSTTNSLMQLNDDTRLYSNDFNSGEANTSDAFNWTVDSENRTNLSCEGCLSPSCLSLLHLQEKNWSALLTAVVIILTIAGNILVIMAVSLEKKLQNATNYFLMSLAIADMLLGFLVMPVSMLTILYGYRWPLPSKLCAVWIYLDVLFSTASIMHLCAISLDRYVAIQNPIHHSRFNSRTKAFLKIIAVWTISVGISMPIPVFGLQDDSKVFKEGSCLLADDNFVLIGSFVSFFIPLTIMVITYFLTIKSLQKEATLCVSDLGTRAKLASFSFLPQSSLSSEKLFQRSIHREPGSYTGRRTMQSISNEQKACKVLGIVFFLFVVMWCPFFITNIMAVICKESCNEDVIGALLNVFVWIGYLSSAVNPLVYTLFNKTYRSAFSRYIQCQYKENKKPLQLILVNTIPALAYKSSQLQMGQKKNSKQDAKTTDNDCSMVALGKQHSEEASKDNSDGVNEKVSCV
# UniProt Q95136, whole entry, looked up: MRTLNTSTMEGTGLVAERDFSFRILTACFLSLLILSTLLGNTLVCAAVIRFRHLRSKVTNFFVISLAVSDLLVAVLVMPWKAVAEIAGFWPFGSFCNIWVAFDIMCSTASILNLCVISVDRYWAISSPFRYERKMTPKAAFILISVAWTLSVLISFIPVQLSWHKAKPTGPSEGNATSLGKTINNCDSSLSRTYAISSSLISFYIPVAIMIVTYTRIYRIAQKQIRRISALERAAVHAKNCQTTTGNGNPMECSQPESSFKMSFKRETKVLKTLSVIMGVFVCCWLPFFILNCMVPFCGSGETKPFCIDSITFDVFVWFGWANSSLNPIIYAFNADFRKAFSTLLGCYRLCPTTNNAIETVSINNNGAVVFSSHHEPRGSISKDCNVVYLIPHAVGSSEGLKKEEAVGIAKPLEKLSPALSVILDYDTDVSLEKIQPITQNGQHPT
# UniProt P05979, whole entry, looked up: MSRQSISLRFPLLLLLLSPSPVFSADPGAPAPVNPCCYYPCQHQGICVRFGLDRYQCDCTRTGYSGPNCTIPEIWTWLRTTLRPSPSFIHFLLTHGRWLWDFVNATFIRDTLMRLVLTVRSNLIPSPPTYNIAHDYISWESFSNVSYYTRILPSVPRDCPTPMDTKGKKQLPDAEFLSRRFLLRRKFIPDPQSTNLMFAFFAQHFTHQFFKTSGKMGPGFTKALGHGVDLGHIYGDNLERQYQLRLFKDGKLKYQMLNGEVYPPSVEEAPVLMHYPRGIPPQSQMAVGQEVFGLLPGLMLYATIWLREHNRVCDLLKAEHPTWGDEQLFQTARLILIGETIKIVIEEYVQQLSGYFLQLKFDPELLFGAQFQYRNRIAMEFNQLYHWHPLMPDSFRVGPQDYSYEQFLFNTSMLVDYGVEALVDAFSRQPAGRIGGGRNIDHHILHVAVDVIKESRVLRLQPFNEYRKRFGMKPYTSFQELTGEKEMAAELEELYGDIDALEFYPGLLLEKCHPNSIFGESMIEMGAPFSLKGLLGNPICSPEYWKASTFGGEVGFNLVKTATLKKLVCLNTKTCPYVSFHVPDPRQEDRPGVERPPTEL
# The shares of active, inactive and inconclusive entries below differ from those in the screen. For part of these data: A potency beside an inconclusive call is a rough fit, not a confirmed value. Active and inactive are the calls of the source. Rule for the calls: active = hit-call score of the fitted dose curve at least 0.9, where 1 is the maximum; inconclusive = response in the unintended direction; inactive = score below 0.9.
# Assays:
# [1] = target: Adenosine receptor A1 (Bos taurus) (UniProt P28190); assay: NVS_GPCR_bAdoR_NonSelective: NovaScreen (NVS) G Protein-Coupled Receptor Assay for bovine Adenosine Receptor (AdoR), Non-selective Binding (AID 2283244)
# In short: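 Bovine striatal membranes, radioligand displacement binding, 1 h after dosing, filter-based scintillation counting. Screened in duplicate at 25 uM, then concentration-response up to 50 uM; loss of specific binding relative to DMSO.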
# [2] = target: guinea pig Leukotriene D4 Receptor (LTD4), CYSLTR1 (gene 100135514) (UniProt Q2NNR5); assay: NVS_GPCR_gLTD4: NovaScreen (NVS) G Protein-Coupled Receptor Assay for guinea pig Leukotriene D4 Receptor (LTD4) (AID 2283248)
# In short: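 Radioligand displacement on guinea pig lung membranes, 1 h incubation, filtration and scintillation counting; DMSO as negative control. Duplicate 25 uM primary screen, then singleton concentration-response up to 50 uM.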
# [3] = NVS_GPCR_bNPY_NonSelective: NovaScreen (NVS) G Protein-Coupled Receptor Assay for bovine Neuropeptide Y (NPY) Receptor, Non-selective Binding (AID 2283245)
# In short: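 Bovine hippocampal membranes incubated 1 hour with radioligand and test chemical. Bound ligand measured by filter-based scintillation counting. Single-concentration screen at 25 uM in duplicate, then concentration-response up to 50 uM.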
# [4] = tested on: bovine Histamine 1 Receptor (H1), gene 281231; assay: NVS_GPCR_bH1: NovaScreen (NVS) G Protein-Coupled Receptor Assay for bovine Histamine 1 Receptor (H1) (AID 2283246)
# In short: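 Radioligand displacement on bovine cerebellar membranes, 1 h after dosing, filter-based scintillation read-out; loss of signal vs DMSO. Duplicate single-concentration screen at 25 uM, then concentration-response up to 50 uM for hits.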
# [5] = target: human Serotonin, 5-Hydroxytryptamine Receptor 5A (5HT5A), HTR5A (gene 3361) (UniProt P47898); assay: NVS_GPCR_h5HT5A: NovaScreen (NVS) G Protein-Coupled Receptor Assay for human Serotonin, 5-Hydroxytryptamine Receptor 5A (5HT5A) (AID 2283251)
# In short: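 Cell-free radioligand displacement binding on HEK293-derived membrane protein, 1 h incubation, filter-based scintillation counting. Primary screen in duplicate at 25 uM, actives followed in concentration series; loss of signal fitted versus DMSO.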
# [6] = target: human Serotonin, 5-Hydroxytryptamine Receptor 2A (5HT2A), HTR2A (gene 3356) (UniProt P28223); assay: NVS_GPCR_h5HT2A: NovaScreen (NVS) G Protein-Coupled Receptor Assay for human Serotonin, 5-Hydroxytryptamine Receptor 2A (5HT2A) (AID 2283249)
# In short: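 Human cortex membranes, cell-free radioligand binding; filter-based scintillation read 1.5 h after dosing. Duplicate screen at 25 uM first; displacement of specific binding (loss of signal) versus DMSO.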
# [7] = tested on: guinea pig Leukotriene B4 Receptor (LTB4), gene 100379538; assay: NVS_GPCR_gLTB4: NovaScreen (NVS) G Protein-Coupled Receptor Assay for guinea pig Leukotriene B4 Receptor (LTB4) (AID 2283247)
# In short: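 Radioligand displacement on guinea pig spleen membranes, filter-based scintillation counting 2 h after dosing. Primary duplicate single point at 25 uM; hits over threshold (e.g. 30% inhibition) run in concentration-response up to 50 uM, DMSO baseline.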
# [8] = tested on: guinea pig Muscarinic, Peripheral (Mperiperal) Receptor, Non-selective Binding, gene 100379235; assay: NVS_GPCR_gMPeripheral_NonSelective: NovaScreen (NVS) G Protein-Coupled Receptor Assay for guinea pig Muscarinic, Peripheral (Mperiperal) Receptor, Non-selective Binding (AID 2283250)
# In short: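 Guinea pig bladder membranes, radioligand binding read 1 h after dosing by filter scintillation counting; loss of signal vs DMSO. Primary duplicate screen at 25 uM, then concentration-response up to 50 uM.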
# [9] = target: bovine Dopamine Receptor (DR), Non-selective Binding, DRD1 (gene 281125) (UniProt Q95136); assay: NVS_GPCR_bDR_NonSelective: NovaScreen (NVS) G Protein-Coupled Receptor Assay for bovine Dopamine Receptor (DR), Non-selective Binding (AID 2283241)
# In short: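 Bovine striatal membranes; radioligand displacement read by filtration and scintillation counting 1 h after dosing, loss of signal vs DMSO. Screened in duplicate at 25 uM, then concentration-response for hits.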
# [10] = tested on: bovine Angiotensin II Receptor Type 2 (AT2), gene 407157; assay: NVS_GPCR_bAT2: NovaScreen (NVS) G Protein-Coupled Receptor Assay for bovine Angiotensin II Receptor Type 2 (AT2) (AID 2283240)
# In short: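 Radioligand displacement on bovine cerebellar membranes, 1 hour incubation, filter-based scintillation counting; loss of signal vs DMSO. Duplicate single-point screen at 25 uM, then concentration-response to 50 uM maximum.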
# [11] = target: sheep Cyclooxygenase-1 (Cox1), PTGS1 (gene 443551) (UniProt P05979); assay: NVS_ENZ_oCOX1: NovaScreen (NVS) Enzymatic Assay for sheep Cyclooxygenase-1 (Cox1) (AID 2283239);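 note: actives reduce cyclooxygenase activity so potencies are for inhibitors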
# In short: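 COX1 from ovine seminal vesicles, activity read colorimetrically about 0.66 h after dosing. Primary screen in duplicate at 25 uM; actives retested in concentration series; loss of signal fitted versus DMSO.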
smiles,measurement,setting,value
CCN(CC)C(=S)SSC(=S)N(CC)CC,outcome,[1],inactive
COC(=O)CCCC(=O)OC,AC50,[2],inconclusive: 25 µM
O=C1OC(c2ccc(O)cc2)(c2ccc(O)cc2)c2ccccc21,AC50,[1],inconclusive: 1.35 µM
CCCOc1sc(C(=O)N2CCC(c3cc(CN)ccc3F)CC2)c(C)c1Br,AC50,[3],active: 36.3 µM
same,AC50,[4],inconclusive: 23.2 µM
COc1cc(S(=O)(=O)O)c(C)cc1N=Nc1c(O)ccc2cc(S(=O)(=O)O)ccc12,outcome,[1],inactive
same,AC50,[5],inconclusive: 38.6 µM
Oc1ccc2c(c1)-c1ccccc1C2,AC50,[5],inconclusive: 25 µM
CC/C(=C\C(=N/O)C(N)=O)C(C)[N+](=O)[O-] (stereo not drawn),outcome,[6],inactive
CC(C)c1nnc2ccc(-c3ocnc3-c3cc(F)ccc3F)cn12,outcome,[2],inactive
COC(=O)c1ccc(I)cc1S(=O)(=O)NC(=O)Nc1nc(C)nc(OC)n1,AC50,[5],inconclusive: 25 µM
Cc1ccc(N(C)C)cc1,outcome,[1],inactive
same,AC50,[4],inconclusive: 0.0299 µM
CNCc1ccc(NC(=O)c2c[nH]c3c2C(=O)CCC3)cc1,AC50,[2],inconclusive: 3.49 µM
OB(O)O,AC50,[6],inconclusive: 25 µM
Cc1cc(F)ccc1-c1cc(N2CC[C@@H](O)[C@H]2CO)ncc1N(C)C(=O)C(C)(C)c1cc(C(F)(F)F)cc(C(F)(F)F)c1,AC50,[7],inconclusive: 0.099 µM
same,outcome,[2],inactive
CCNc1nc(N)nc(Cl)n1,AC50,[4],inconclusive: 0.157 µM
same,outcome,[2],inactive
CCN(CC)C(=O)c1cccc(C)c1,AC50,[2],inconclusive: 0.00555 µM
CCCCC(CC)COC(=O)CC(C(=O)OCC(CC)CCCC)S(=O)(=O)O (stereo not drawn),outcome,[6],inactive
CCCCCC(C=O)=Cc1ccccc1,AC50,[2],inconclusive: 29.1 µM
OC[C@H]1O[C@@H]2O[C@H]3[C@H](O)[C@@H](O)[C@@H](O[C@H]4[C@H](O)[C@@H](O)[C@@H](O[C@H]5[C@H](O)[C@@H](O)[C@@H](O[C@H]6[C@H](O)[C@@H](O)[C@@H](O[C@H]7[C@H](O)[C@@H](O)[C@@H](O[C@H]1[C@H](O)[C@H]2O)O[C@@H]7CO)O[C@@H]6CO)O[C@@H]5CO)O[C@@H]4CO)O[C@@H]3CO,AC50,[1],inconclusive: 7.6 µM
O=C(O)c1cccc(N(Cc2cccnc2)c2ccc(OC(F)F)c(OC(F)F)c2)c1,AC50,[5],inconclusive: 1.06 µM
CCCC[C@H]1CN(CC2CCOCC2)C(=O)OC12CCN(C1(C)CCN(C(=O)c3c(C)ncnc3C)CC1)CC2,AC50,[4],inconclusive: 5.55 µM
O=C1c2ccccc2C(=O)N1CCc1noc(-c2ccc(CN3CCCCCC3)s2)n1,AC50,[4],active: 12.1 µM
CCCCC(CC)CO (stereo not drawn),AC50,[1],inconclusive: 25 µM
CCc1nn(C2CCCCC2)c2cc(C3(C#N)CCC(C(=O)O)CC3)ccc12 (stereo not drawn),AC50,[2],inconclusive: 25 µM
O=C(O)[C@H](O)[C@@H](O)C(=O)O,AC50,[8],inconclusive: 2.15 µM
CCOC(=O)c1ccc(C2CCC(NC[C@H](O)COc3ccc(O)c(NS(C)(=O)=O)c3)CC2)cc1 (stereo partly drawn),AC50,[8],active: 23.4 µM
same,AC50,[5],inconclusive: 5.59 µM
CCOCCO,AC50,[1],inconclusive: 1.01 µM
O=C(Oc1ccccc1)c1cccc(C(=O)Oc2ccccc2)c1,AC50,[9],inconclusive: 0.0496 µM
Clc1ccc(Cl)c(Cl)c1Cl,outcome,[2],inactive
Cc1nc(-c2ccc3c(c2)CCN(CCC2CCC(NC(=O)/C=C/c4ccc(F)cc4)CC2)CC3)no1 (stereo not drawn),AC50,[8],active: 0.483 µM
Cc1occc(=O)c1O,outcome,[6],inactive
CCN(Cc1c(F)cccc1Cl)c1c([N+](=O)[O-])cc(C(F)(F)F)cc1[N+](=O)[O-],AC50,[5],inconclusive: 25 µM
CCOC(=O)CC(C)O (stereo not drawn),AC50,[2],inconclusive: 0.445 µM
CCCCCCCCCCCC(=O)OC,outcome,[3],inactive
CCCCc1nc2cccnc2n1Cc1ccc(-c2ccccc2-c2nnn[nH]2)cc1,outcome,[10],inactive
C=CCCCCCCCCCCCC,AC50,[8],inconclusive: 0.0843 µM
CO[C@H]1/C=C/O[C@@]2(C)Oc3c(C)c(O)c4c(O)c(c(/C=N/N5CCN(C)CC5)c(O)c4c3C2=O)NC(=O)/C(C)=C\C=C\[C@H](C)[C@H](O)[C@@H](C)[C@@H](O)[C@@H](C)[C@H](OC(C)=O)[C@@H]1C,AC50,[3],inconclusive: 15.6 µM
C=CCc1cc(S(=O)(=O)c2ccc(O)c(CC=C)c2)ccc1O,AC50,[11],active: 1.07 µM
same,AC50,[5],active: 25 µM
CCOC(=O)CCC(=O)OCC,AC50,[6],inconclusive: 0.14 µM
same,outcome,[8],inactive
same,AC50,[5],inconclusive: 6.49 µM
NC(=O)N(O)[C@@H]1COc2cc(OCc3ccccc3)ccc21,AC50,[8],inconclusive: 0.175 µM

# Retrieved one by one from above (2):
smiles,measurement,setting,value
CO[C@H]1/C=C/O[C@@]2(C)Oc3c(C)c(O)c4c(O)c(c(/C=N/N5CCN(C)CC5)c(O)c4c3C2=O)NC(=O)/C(C)=C\C=C\[C@H](C)[C@H](O)[C@@H](C)[C@@H](O)[C@@H](C)[C@H](OC(C)=O)[C@@H]1C,AC50,[3],inconclusive: 15.6 µM
CCOC(=O)CCC(=O)OCC,AC50,[6],inconclusive: 0.14 µM
